Laboratory results from patent publication US11766414B2 (Indi Molecular, Inc., priority 2020, dated 2023).

Assay: Fmoc solid-phase peptide synthesis; CTC resin; HBTU/DIPEA in DMF (HATU for some residues)
Conditions: whole synthesis, analytical HPLC and LC/MS

folate-hshta-Gly-Phe-Lys(DOTA)
final HPLC purity: 97%
